Results: publication PMC6212794, “Crystal structure of the modification-dependent SRA-HNH endonuclease TagI”
For at least one entry, the source does not settle the construct or the ends of the probe. Weaker means in comparison with the reference protein, sequence or condition of that experiment. Protein sequences can lack the tags named with them.

Target: T1, TagI (Thermocrispum agreste) (UniProt A0A3F2YM30)
T1 sequence (looked up, limits assumed): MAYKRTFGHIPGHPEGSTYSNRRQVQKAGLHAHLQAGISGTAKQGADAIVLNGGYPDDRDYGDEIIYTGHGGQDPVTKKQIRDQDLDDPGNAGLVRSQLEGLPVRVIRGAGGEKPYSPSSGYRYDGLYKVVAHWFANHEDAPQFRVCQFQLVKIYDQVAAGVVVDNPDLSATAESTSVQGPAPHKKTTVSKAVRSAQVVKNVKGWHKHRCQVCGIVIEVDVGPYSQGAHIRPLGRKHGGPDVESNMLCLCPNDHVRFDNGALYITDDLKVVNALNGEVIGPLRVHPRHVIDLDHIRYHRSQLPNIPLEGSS
Assay: analytical gel filtration (SEC co-migration)
Conditions: broad complex peak, less tight than fully methylated

Sequence | binding result (5mC at position 8 of strand 2, recombinant protein) | binding result (5mC at position 8 of strand 1, recombinant protein)
CCTAGAGCAGCAATCCC (double strand) [17mer hemimethylated duplex, bottom strand 5mC] | binds more weakly | –
CCTAGAGCAGCAATCCC (double strand) [17mer hemimethylated duplex, top strand 5mC] | – | binds more weakly
